Our source for the binding signal values is article PMC7819943, “Rice protein-binding microarrays: a tool to detect cis-acting elements near promoter regions in rice”.

Protein sequences, listed by entry. Tags and fused reporters are not part of them.
UniProt Q0JBA9, entry or part of it: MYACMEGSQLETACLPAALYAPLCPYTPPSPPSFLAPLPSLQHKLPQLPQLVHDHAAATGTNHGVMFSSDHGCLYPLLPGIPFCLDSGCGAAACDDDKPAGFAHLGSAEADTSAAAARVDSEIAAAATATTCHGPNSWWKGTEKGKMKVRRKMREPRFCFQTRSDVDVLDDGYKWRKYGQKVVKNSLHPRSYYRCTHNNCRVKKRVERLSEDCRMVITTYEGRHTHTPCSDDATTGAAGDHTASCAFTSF

The list shows a part of the results.

This test deals with OsWRKY34 (Oryza sativa, UniProt Q0JBA9 1-250). The experiment in a line: protein-binding microarray (RPBM); PBS, 2% BSA, 51.3 ng/ul salmon testes DNA, 50 uM zinc acetate, 200 nM TF, 25 C, 1 h; high values mean tight binding. Particulars: protein: recombinant; tags: N-terminal polyhistidine and DsRed monomer fusion (pET32a); label: CyDye5-dUTP incorporated in the synthesized complementary strand; 3' TTTTT single-stranded linker to array surface; dsDNA, one strand shown. The method in brief: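 Polyhistidine-tagged DsRed fusions of transcription factors, joined at the N-terminus, were expressed in E. coli BL21-CodonPlus and isolated on Ni–NTA. They were incubated at 200 nM for 1 h at 25 °C on a custom Agilent array, double-stranded and BSA-blocked, in PBS with 2% BSA, salmon testes DNA and 50 µM zinc acetate. The binding signal is per-feature fluorescence intensity (arbitrary units) read on an Axon 4000B scanner after washing.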
As for “TCTTCTTCTTCCTCGCATCCATAGCTACCGATCAGGGGCACGGAGTCACCTAGTGCAG”, the binding signal is 9570 fluorescence intensity (a.u.). Take “AAACCATCACACTAGTCGTATGATATGACTTTACCCTGCACGGAGTCACCTAGTGCAG”: the binding signal is 8410 fluorescence intensity (a.u.).

As to “CTAGTGATGCTTTTTGTTGTTGTTCATTTTGAATATCTGTCGGAGTCACCTAGTGCAG”, the binding signal is 10900 fluorescence intensity (a.u.). Take “GCATAAACTTTCAATTTTCCCGTCACATCGTTCCAATTTCCGGAGTCACCTAGTGCAG”: the binding signal was 9070 fluorescence intensity (a.u.). For the sequence “TAAATCTTCTGTTATAGCTGCTATCTTTCGCTGTTGCTGTCGGAGTCACCTAGTGCAG”, the binding signal is 8740 fluorescence intensity (a.u.). “ACCTGTCTCCCTGCTGCTGTTTCTACCATTACTGCATTTTCGGAGTCACCTAGTGCAG”: the binding signal is 14200 fluorescence intensity (a.u.). The same measure for “CCGCCGCCGCCGCTCGCCTCCGCCTCCGCCTCCGTCCCCTCGGAGTCACCTAGTGCAG”: 8680 fluorescence intensity (a.u.). As for “CTGCTGCTGGTGCTTAATTTTGCTCGGGTTCGTGGGGTTGCGGAGTCACCTAGTGCAG”, the binding signal was 9970 fluorescence intensity (a.u.). “GGGAGGAGGAGGATCGGAGGAGGAGGGGTTTCACGCCATGCGGAGTCACCTAGTGCAG”: the binding signal was 11100 fluorescence intensity (a.u.). As for “CTAATAGCTCACATCGTTTCGCGTATCTTTCCAATCTTCTCGGAGTCACCTAGTGCAG”, the binding signal was 8790 fluorescence intensity (a.u.). Consider “ATAAACGTGCATCCCAGCCTCTCTGTTATTATGGCTATTTCGGAGTCACCTAGTGCAG”, for which the binding signal is 8450 fluorescence intensity (a.u.). On to “ATCCACCCCGCGATCCGTTTTTGCTGTGCCCCACCGCCTCCGGAGTCACCTAGTGCAG”, for which the binding signal is 11400 fluorescence intensity (a.u.). The result for “GGTTGCTGCTGCTGCTGCTGCGGCGCTGGGGTTAGGGTTTCGGAGTCACCTAGTGCAG” reads 8790 fluorescence intensity (a.u.). Consider “GTCTCGCGATTTTCATGTAAACTGTACAATTAGTTTTTGTCGGAGTCACCTAGTGCAG”, for which the binding signal is 9300 fluorescence intensity (a.u.). Consider “GGTTGGTGGGTGTGGGCGTGTGGCAAAGCAGAGAGGCGGCCGGAGTCACCTAGTGCAG”, for which the binding signal was 8530 fluorescence intensity (a.u.). In the case of “ACAACTTGCCCAGTGTCCATAATATCGATCGCTTGTTCACCGGAGTCACCTAGTGCAG”, the binding signal was 10200 fluorescence intensity (a.u.). The same measure for “AACCACCTGAATTTCGTCGAATTTTACCAATTCTGCTGAACGGAGTCACCTAGTGCAG”: 9120 fluorescence intensity (a.u.); for “TCAAAACTTTTCTACACACACAAACTTTCAACTTTTCTATCGGAGTCACCTAGTGCAG”: 8170 fluorescence intensity (a.u.). Take “CAAATGGAGGCCCCTTTTAGATACGCTTCCTGTTACTTTCCGGAGTCACCTAGTGCAG”: the binding signal is 8710 fluorescence intensity (a.u.). For “ACCTACGCATCGTCCAGACGCCCATACACGTATGCATACGCGGAGTCACCTAGTGCAG”, the binding signal is 9110 fluorescence intensity (a.u.). Take “ATCACCATGCCACATTTCTCACTCATTTCACACTCACACCCGGAGTCACCTAGTGCAG”: the binding signal is 12900 fluorescence intensity (a.u.). “CGTCGGAATGCTTCTTATCCATATATACCTTGTTCTCCAACGGAGTCACCTAGTGCAG”: the binding signal is 10300 fluorescence intensity (a.u.). Take “CGGTTCCTCAACACGCTCTTCACCATCGCGTGCCTGTACCCGGAGTCACCTAGTGCAG”: the binding signal is 9000 fluorescence intensity (a.u.).
